Structures are written as SMILES. Where a name gives a salt, the structure may show the parent alone. Some of the results follow. Cut-off read from the data, not from the text of the source: active = 0.7 or more and inactive = the rest. Single values are uncertain, as repeats are few or missing.

This note sets out measurements from the supplement of paper PMC12872613.

This experiment relates to MiaPaCa-2 CLSA-25. Put plainly: cell death relative to DMSO vehicle (fraction); higher = more cytotoxic. The following applies: 5 µM; treatment time 48 h; medium cystine 25 µM.
`CC(=O)N[C@H]1CSSC[C@@H](C(N)=O)NC(=O)[C@H](C(C)C)NC(=O)[C@H](C)NC(=O)[C@H](Cc2c[nH]cn2)NC1=O` [Exherin trifluoroacetate]: the cell death is inactive: 0.501. The value for `CC(=O)/N=c1/sc(S(N)(=O)=O)nn1C` [Methazolamide] was inactive: 0.177. As to `C[C@H]1C[C@H]2[C@@H]3CCC4=CC(=O)C=C[C@]4(C)[C@H]3C(=O)C[C@]2(C)[C@@]1(O)C(=O)CO` [Meprednisone], the cell death is inactive: 0.0206.

As for `CC1=C(/C=C/C(C)=C/C=C/C(C)=C/C=C/C=C(C)/C=C/C=C(C)/C=C/C2=C(C)CCCC2(C)C)C(C)(C)CCC1` [Beta-Carotene], the cell death was inactive: 0.0187.

Take `CCCc1nc(C)c2c(=O)nc(-c3cc(S(=O)(=O)N4CCN(CC)CC4)ccc3OCC)[nH]n12` [Vardenafil hydrochloride trihydrate]: the cell death is inactive: 0.072. The figure for `Cc1noc(-c2ccc(-c3ccc(C4(C(=O)O)CC4)cc3)cc2)c1NC(=O)O[C@H](C)c1ccccc1` is inactive: 0.628.

As to `CCN(CC)CCOc1ccc2c(c1)C(=O)c1cc(OCCN(CC)CC)ccc1-2` [Tilorone dihydrochloride], the cell death is inactive: 0.161. The figure for `CCC1=C(C)CN(C(=O)NCCc2ccc(S(=O)(=O)NC(=O)N[C@H]3CC[C@H](C)CC3)cc2)C1=O` [Glimepiride] is inactive: -0.0158. The figure for `CC(C)[C@]12O[C@H]1[C@@H]1O[C@]13[C@]1(O[C@H]1C[C@H]1C4=C(CC[C@@]13C)C(=O)OC4)[C@@H]2O` [Triptolide] is inactive: 0.584.

Consider `COC(=O)c1cc(OC)c2c(c1-c1c(C(=O)OC)cc(OC)c3c1OCO3)OCO2` [Bifendatatum], for which the cell death is inactive: 0.498.

In the case of `Cn1c(=O)c2[nH]cnc2n(C)c1=O` [Aminophylline], the cell death is inactive: 0.0242. Regarding `Cn1c(=O)c2nc[nH]c2n(C)c1=O` [Theophylline], the cell death is inactive: 0.0211.

On to `O=C1N[C@](c2ccc(N3CCOCC3)cc2)(c2ccsc2)CC(O)=C1Sc1ccccc1Cl`, for which the cell death was inactive: 0.139. For the molecule `Cc1cc(F)c(C(=O)Nc2cccc(-c3nncn3C(C)C)n2)cc1-n1cnc(C2CC2)c1` [Selonsertib], the cell death is inactive: 0.602. The figure for `COc1ccc2[nH]cc(CCNC(C)=O)c2c1` [Melatonine] is inactive: 0.0482; for `CCCCCCCCCCCCCCCC(=O)OC[C@H](O)[C@H]1OC(=O)C(O)=C1O` [L-Ascorbyl 6-palmitate] it is inactive: 0.196. The figure for `COc1cc(C(C)=O)ccc1O` [Acetovanillone] is active: 0.852; for `CN(CCOc1ccc(CC2SC(=O)NC2=O)cc1)c1ccccn1` (stereo not drawn) [Rosiglitazone maleate] it is inactive: 0.114. The value for `COc1ccc(-c2cc(=O)c3c(O)cc(O)cc3o2)cc1O` [Diosmetin] was inactive: 0.163; that for `O=C([O-])c1ccccc1O.[Na+]` [Sodium salicylate] was inactive: 0.0417; that for `CCCN1CCN(c2ccc(C(=O)NC3(C(=O)NCC#N)CCCCC3)cc2)CC1` [Balicatib] was inactive: 0.27. Regarding `CCC(=O)O[C@]1(C(=O)CCl)[C@@H](C)C[C@H]2[C@@H]3CCC4=CC(=O)C=C[C@]4(C)[C@@]3(F)[C@@H](O)C[C@@]21C` [Clobetasol propionate], the cell death was inactive: 0.034. The figure for `CNC(=O)Nc1cc(Oc2cncc(C)c2)c(-c2ccc(OCC(C)(C)O)nc2)cn1` is inactive: 0.0966; for `Nc1ccccc1C(=O)C[C@H](N)C(=O)O` [L-Kynurenine] it is inactive: 0.0597. The value for `O=c1oc2c(O)c(O)cc3c(=O)oc4c(O)c(O)cc1c4c23` [Ellagic acid] was inactive: -0.0313; that for `Oc1cc(O)c(Cl)cn1` [Gimeracil] was active: 0.881. The value for `CCC(CC)CC1(C(=O)Nc2ccccc2SC(=O)C(C)C)CCCCC1` [Dalcetrapib] was active: 0.779; that for `Oc1ncnc2[nH]ncc12` [Allopurinol] was inactive: 0.0803; that for `Nc1cccc(S(=O)(=O)N2CCCN(S(=O)(=O)c3ccc4c(c3)OCCO4)CC2)c1` was inactive: 0.128.

As to `NCCc1ccc(S(=O)(=O)F)cc1` [AEBSF hydrochloride], the cell death is inactive: 0.396. For `C#CCN(C)Cc1ccccc1` [Pargyline], the cell death was inactive: 0.105. The value for `O=C(O)CC1CC(c2ccccc2)=NO1` (stereo not drawn) was inactive: 0.209; that for `Cc1cnc(-c2cnc(NCCNc3ccc(C#N)cn3)nc2-c2ccc(Cl)cc2Cl)[nH]1` was inactive: 0.171.
